Measurements reported in PubChem BioAssay AID1224828 (NIAID, 2016)
In all, the deposit lists about 17,000 reagents; shown is a part drawn at random. Over the whole deposit, 762 (4.5%) were called active. 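Active calls include both raised and lowered p65 entry, mostly lowered; wells with fewer than 50 cells lack a z-score.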 Raw values vary from plate to plate and are shown uncorrected. A number with no mark means an inactive call. Some reagents were tested in more than one well and are listed for each. No sequences are given here.

Aim: 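Knock-downs that increase or decrease LPS-induced p65 nuclear translocation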 (primary screen)
Cells: mouse RAW264.7 G9 macrophage reporter cells (GFP-p65, Tnf promoter-mCherry)
Reagents: siRNA pool against mouse genes, 100 nM
Time to read-out: 2 days siRNA transfection, then 40 min LPS before fixation
Challenge: LPS (Salmonella minnesota R595) at 10 ng/ml
Measured: 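Imaged p65 nuclear translocation ratio, normalised to the plate median, converted to robust z-scores and averaged across two replicates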
Direction: p65 translocation robust z-score: higher = more nuclear NF-kappaB p65 after LPS than the plate median; nuclear/cytoplasmic p65 ratio: higher = more nuclear NF-kappaB p65
Active means: 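Called active when z exceeds 3.3 or falls under -1.56 (median of Tlr4 controls), giving activity score of at least 50; no calls for control wells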
Calls: active = hit (p65 shift raised or lowered); inactive = no clear change

target | p65 translocation robust z-score | nuclear/cytoplasmic p65 ratio, rep 1 | nuclear/cytoplasmic p65 ratio, rep 2 | low cell count flag
Nkd1 (naked cuticle 1) | 1.35 | 1.94 | 1.72 | enough cells to score
Cnot3 (CCR4-NOT transcription complex, subunit 3) | 2.64 | 1.85 | 1.7 | enough cells to score
Or10al4 (olfactory receptor family 10 subfamily AL member 4) | – | 1.53 | 1.57 | fewer than 50 cells per well; well left out of scoring
Prph2 (peripherin 2) | 0.4 | 1.61 | 1.61 | enough cells to score
Cep68 (centrosomal protein 68) | -0.48 | 1.59 | 1.66 | enough cells to score
A730020M07Rik (RIKEN cDNA A730020M07 gene) | – | 1.29 | 1.48 | fewer than 50 cells per well; well left out of scoring
Actc1 (actin, alpha, cardiac muscle 1) | 0.89 | 1.85 | 1.66 | enough cells to score
Rmc1 (regulator of MON1-CCZ1) | -0.72 | 1.46 | 1.55 | enough cells to score
Klra4 (killer cell lectin-like receptor, subfamily A, member 4) | -1.03 | 1.22 | 1.25 | enough cells to score
Or10x1 (olfactory receptor family 10 subfamily X member 1) | 1.28 | 1.44 | 1.42 | enough cells to score
Hrk | -0.17 | 1.61 | 1.57 | enough cells to score
Tfap2a (transcription factor AP-2, alpha) | 0.12 | 1.54 | 1.53 | enough cells to score
Crh (corticotropin releasing hormone) | 0.71 | 1.57 | 1.47 | enough cells to score
Dync1li2 (dynein, cytoplasmic 1 light intermediate chain 2) | 2.13 | 1.79 | 2.07 | enough cells to score

Laid out differently: entries from further up
A730020M07Rik (RIKEN cDNA A730020M07 gene)
- nuclear/cytoplasmic p65 ratio, rep 1: 1.29
- nuclear/cytoplasmic p65 ratio, rep 2: 1.48
- low cell count flag: fewer than 50 cells per well; well left out of scoring

Actc1 (actin, alpha, cardiac muscle 1)
- p65 translocation robust z-score: 0.89
- nuclear/cytoplasmic p65 ratio, rep 1: 1.85
- nuclear/cytoplasmic p65 ratio, rep 2: 1.66
- low cell count flag: enough cells to score

Rmc1 (regulator of MON1-CCZ1)
- p65 translocation robust z-score: -0.72
- nuclear/cytoplasmic p65 ratio, rep 1: 1.46
- nuclear/cytoplasmic p65 ratio, rep 2: 1.55
- low cell count flag: enough cells to score

The listing continues.
target | p65 translocation robust z-score | nuclear/cytoplasmic p65 ratio, rep 1 | nuclear/cytoplasmic p65 ratio, rep 2 | low cell count flag
Cela2a (chymotrypsin-like elastase family, member 2A) | 0.24 | 1.49 | 1.47 | enough cells to score
Atp1b3 (ATPase, Na+/K+ transporting, beta 3 polypeptide) | -1.8 (active) | 1.27 | 1.33 | enough cells to score
Krtap3-3 (keratin associated protein 3-3) | 0.45 | 1.52 | 1.58 | enough cells to score
Zfp14 (zinc finger protein 14) | – | 1.04 | 1.03 | fewer than 50 cells per well; well left out of scoring
Crls1 (cardiolipin synthase 1) | 0.92 | 1.77 | 1.48 | enough cells to score
Rnf114 (ring finger protein 114) | – | 1.42 | 1.19 | fewer than 50 cells per well; well left out of scoring
Uox (urate oxidase) | – | 1.18 | 1.12 | fewer than 50 cells per well; well left out of scoring
Gabrp (gamma-aminobutyric acid type A receptor subunit pi) | 0.01 | 1.4 | 1.4 | enough cells to score
Trpc1 | -0.71 | 1.5 | 1.33 | enough cells to score
Cxcl3 (C-X-C motif chemokine ligand 3) | 1.33 | 1.73 | 1.85 | enough cells to score
Acsl6 (acyl-CoA synthetase long-chain family member 6) | 1.68 | 1.87 | 1.88 | enough cells to score
Aldh1l1 (aldehyde dehydrogenase 1 family, member L1) | 1.82 | 1.88 | 1.7 | enough cells to score
Lair1 (leukocyte-associated Ig-like receptor 1) | -0.04 | 1.49 | 1.36 | enough cells to score
Gpbar1 (G protein-coupled bile acid receptor 1) | 1.33 | 1.65 | 1.82 | enough cells to score
Crip3 (cysteine-rich protein 3) | 2.28 | 1.84 | 2.24 | enough cells to score
Emc1 (ER membrane protein complex subunit 1) | 1.38 | 1.57 | 1.76 | enough cells to score
Lrriq3 (leucine-rich repeats and IQ motif containing 3) | 1.51 | 1.35 | 1.49 | enough cells to score
Pias1 (protein inhibitor of activated STAT 1) | -0.44 | 1.45 | 1.34 | enough cells to score
Stk36 (serine/threonine kinase 36) | -0.17 | 1.64 | 1.38 | enough cells to score
Stk36 (serine/threonine kinase 36) | -1.07 | 1.25 | 1.34 | enough cells to score
Anxa6 (annexin A6) | 0.36 | 1.69 | 1.66 | enough cells to score
Zswim9 (zinc finger SWIM-type containing 9) | -0.23 | 1.33 | 1.29 | enough cells to score
Cryge (crystallin, gamma E) | -0.35 | 1.44 | 1.82 | enough cells to score
Frem1 (Fras1 related extracellular matrix protein 1) | -0.41 | 1.42 | 1.58 | enough cells to score
Marveld1 (MARVEL (membrane-associating) domain containing 1) | 0.26 | 1.87 | 1.59 | enough cells to score
Arl16 (ADP-ribosylation factor-like 16) | -1.62 (active) | 1.18 | 1.26 | enough cells to score
